Laboratory results taken from patent publication US20070219117A1, “BIDENTATE MOTIF AND METHODS OF USE” (MEDVET SCIENCE PTY LTD, priority 2003, published 2007).
At least one structure is not confirmed: it was looked up by name or label, or the drawing left a doubt.

Tested on: primary human neutrophils
Assay: Survival of primary human neutrophils, annexin V-FITC
Format: cell-based
Conditions: neutrophils stimulated with GM-CSF
Experimental: Survival was determined by annexin V-FITC (Roche) staining essentially as previously described (Guthridge et al., 2000). […] After 48 hours, cells were stained with the 4H1 anti-GMRα mAb and annexin V-FITC. The proportion of GMRα-positive cells remaining viable (annexin V-FITC-negative) after culture was analysed by flow cytometry. […] In some experiments forskolin ICN Biochemicals), H89 (Seikaguku Corporation), LY294002 (Cayman Chemical Company), genestein (Sigma) or AG490 (Biomol) were used.

SMILES: O=c1cc(N2CCOCC2)oc2c(-c3ccccc3)cccc12 [LY294002]
- effect on GM-CSF-promoted survival of neutrophils: blocks survival
